Some entries share one result that the patent states for a list of compounds. At least one compound was matched to its structure with a doubt left. *1 amine or outer side, *2 acyl side, *3 side chain or, on linkers, in order; H or OH if unused. Where a SMILES comes first, the peptide text is derived from it. [ ]: non-standard residue; d: D form. The star is where a group is joined. Exatecan = CC[C@@]1(O)C(=O)OCc2c1cc1n(c2=O)Cc2c-1nc1cc(F)c(C)c3c1c2[C@@H](N*)CC3; Hexanoyl(6-maleimido) = O=C1C=CC(=O)N1CCCCCC(=O)*; NHCH2OCH2CO = O=C(COCN[*:1])[*:2]
Test system: T-DXd-resistant NCI-N87 cells
Assay: Proliferation assay (CellTiter Glo), T-DXd resistant NCI-N87 cells
Assay type: cell-based, human
Settings: 5 days of incubation, in vitro
Experimental: Per well, 1000 cells are seeded in 40 μL medium in white, sterile 384-well culture plates (TC-treated; PerkinElmer #6007680) and incubated overnight in a humidified incubator at 37° C. and 5% CO2. 0.1% DMSO-control or serial compound dilution in triplicates are added. […] After 5 days of incubation with test compounds, the cells plates are measured upon addition of CellTiter Glo Luminescent Cell Viability Reagent (Promega, #G9243) to assess cell viability. The plates are placed on a shaker for five minutes and additionally incubated for 10 minutes at room temperature to induce cell lysis and to stabilize the luminescent signal. The luminescent signal of each well is measured in an EnSpire Multilabel Plate Reader 658 (PerkinElmer). The dose response curves are fit and visualized using Boehringer Ingelheim's proprietary software MegaLab and PRISM (GraphPad Inc.).

Which “difference in IC50 between parental and T-DXd-resistant NCI-N87 cells” value does the source give for CC[C@@]1(O)C(=O)OCc2c1cc1n(c2=O)Cc2c-1nc1cc(F)c(C)c3c1c2[C@@H](NC(=O)COCNC(=O)CNC(=O)[C@H](Cc1ccccc1)NC(=O)CNC(=O)CNC(=O)CCCCCN1C(=O)C=CC1=O)CC3 [deruxtecan, reference compound] ({Hexanoyl(6-maleimido)}-GGFG[NHCH2OCH2CO]-Exatecan) here?
The value was “at least 100 fold”.
